Patent publication US20170246236A1, “METHODS AND COMPOSITIONS FOR ENHANCED DELIVERY OF COMPOUNDS” (Sanford Burnham Prebys Medical Discovery Institute, priority 2010, published 2017)
“Also recorded” adds a separate entry of the source. For part of these data: At least one peptide structure holds a part that was inferred or is arguable (an end, a ring closure or a residue). For part of these data: For at least one compound, name, drawing or mass did not settle the structure. Residues, ends and D or L forms follow the SMILES beside them.

Tests used:
[1] = tested on: purified mitochondria; assay: Peptide/phage binding to purified mitochondria; parameters: species or system mouse; conditions: increasing concentrations of unlabeled peptide
Description: Isolation of mitochondria and peptide/phage binding. Mitochondria were isolated from livers of Balb/c mice using differential centrifugation with buffers from a Pierce mitochondrial isolation kit for tissue according to the manufacture's instruction (Pierce Biotechnology, Rockford, Ill.). To test the binding of the CGKRK peptide to mitochondria, purified mitochondria were pre-incubated with various concentrations of non-labeled CGKRK or control peptide (CREKA; SEQ ID NO:92) for 30 min 4° C. FAM-CGKRK was then added and incubated for an additional 1 hour. The binding of the FAM peptide was quantified by fluorescence. In phage binding assays, purified mitochondria were suspended in 10 ml DMEM supplemented with 1% BSA, and incubated with 5×10^8 plaque-forming units (pfu) of peptide-displaying phage, overnight at 4° C. The mitochondria were washed 3 times with DMEM/BSA, the phage were collected with lysogeny broth containing 1% NP-40, and quantified by plaque assay.

[2] = target: T1, p32 protein in mitochondrial extracts (Mus musculus, UniProt O35658); assay: Affinity chromatography of mitochondrial extracts on CGKRK resin; format: binding; conditions: eluted with 2 mM free CGKRK, CREKA control
T1 construct: from tissue; host or cells: mouse liver mitochondria
T1 sequence (O35658 71-278): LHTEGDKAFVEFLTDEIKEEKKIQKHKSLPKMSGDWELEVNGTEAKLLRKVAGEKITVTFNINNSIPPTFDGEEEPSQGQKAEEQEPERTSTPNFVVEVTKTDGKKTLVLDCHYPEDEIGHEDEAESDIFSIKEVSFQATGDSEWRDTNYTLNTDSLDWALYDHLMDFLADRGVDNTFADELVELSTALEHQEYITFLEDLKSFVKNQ

[3] = tested on: proteins from brain tumor extracts; assay: CGKRK-binding proteins in glioblastoma tumor extracts (affinity matrix); conditions: mass spectrometry
Description: Proteins from brain tumor extracts were bound to insolubilized (SulfoLink Resin; Pierce Biotechnology) CGKRK peptide. Proteins were eluted from the affinity matrix with either CGKRK peptide or with CREKA (SEQ ID NO:92) peptide (negative control). Silver-stained gels were used to show the proteins eluted with CGKRK and CREKA (SEQ ID NO:92). […] The bands in the CGKRK eluate were identified by mass spectrometry as the proteins listed.

[4] = tested on: mitochondria in U87 cells; assay: Live cell imaging, co-localization with mitochondrial marker; format: cell-based, human
Description: (§1) Cell proliferation assay and imaging. The MTT [3-[4,5-dimethylthazol-2-yl]-2,5-diphenyl tetrazolium-bromide] assay (Molecular Probes, Eugene, Oreg.) was used to quantify cell proliferation. Cells were seeded in complete medium into 96-well plates (5×10^3 cells/well), and allowed to attach overnight at 37° C. in a humidified 5% CO2 atmosphere. The culture media was then removed and various concentrations of peptides or NWs were added. After 48, and 72 hours, 10 μL of the MTT reagent (5 mg/mL in PBS) was added to each well. The medium was removed from cells after 3 hours, and […] of DMSO:MEOH (1:1 v/v) were added to each well. The plates were read at a wavelength of 595 nm. For live cell imaging, cells seeded on glass-bottom plates (Willco, Amsterdam, Netherlands), and 24 hours later, the cells were washed and incubated with FAM-labeled peptides or NWs for 45 min at 37° C. The cells were then rinsed three times with PBS and incubated for an additional 15 min at 37° C. with […] MitoTracker Red (Molecular Probes, Eugene, Oreg.) followed by nuclear staining with Hoechst 33342 DNA dyes (Molecular Probe, Eugene, Oreg.) for 12 min. The cells were analyzed with Fluoview FV 500 confocal microscopy (Olympus America, Center Valley, Pa.).

[5] = tested on: mitochondria in HUVEC; assay: as above; format: cell-based, human
Description: as §1

[6] = tested on: HUVEC, T3 and U87 cells; assay: Cytotoxicity of peptide on NWs versus free peptide, stated over several cell lines; format: cell-based; conditions: range over cell lines of Table 3; read-out: LC50 value

Compound | inhibition of FAM-CGKRK binding to mitochondria by unlabeled peptide [1] | proteins bound from mitochondrial extracts [2] | proteins bound from mitochondrial extracts ([2]; listed as CGKRK peptide) | proteins eluted from CGKRK affinity matrix [3] | co-localization with mitochondria ([4]; listed as FAM-CGKRK) | co-localization with mitochondria ([4]; listed as FAM-CGKRK peptide) | co-localization with mitochondria ([5]; listed as FAM-CGKRK) | co-localization with mitochondria ([5]; listed as FAM-CGKRK peptide) | CC50 [6] [µM]
N=C(N)NCCC[C@H](NC(=O)[C@H](CCCCN)NC(=O)CNC(=O)[C@@H](N)CS)C(=O)N[C@@H](CCCCN)C(=O)O [CGKRK, Cys-Gly-Lys-Arg-Lys] (H-CGKRK-OH) | competitively inhibited; also recorded: declined in proportion | bound a specific band below 36-kDa | binds specifically to the p32 protein | eluted nardilysin (132 Kd), nucleolin (97 Kd), cytoskeleton-associated protein 4 (p63), Hnrnpa3/Hnrnpa2b1 (39 Kd), and p32 protein (33 Kd) | co-localized with a mitochondrial marker | co-localized with mitochondria | co-localized with a mitochondrial marker | co-localized with mitochondria | –
CC(C)C[C@@H](NC(=O)[C@H](N)CCCCN)C(=O)N[C@H](C)C(=O)N[C@H](CCCCN)C(=O)N[C@H](CC(C)C)C(=O)N[C@H](C)C(=O)N[C@H](CCCCN)C(=O)N[C@H](CCCCN)C(=O)N[C@H](CC(C)C)C(=O)N[C@H](C)C(=O)N[C@H](CCCCN)C(=O)N[C@H](CC(C)C)C(=O)N[C@H](C)C(=O)N[C@H](CCCCN)C(=O)N[C@@H](CS)C(=O)NCC(=O)N[C@@H](CCCCN)C(=O)N[C@@H](CCCNC(=N)N)C(=O)N[C@@H](CCCCN)C(=O)O [CGKRK-D[KLAKLAK]2 peptide] | – | – | – | – | – | – | – | – | 14 to 25
